Test results reported in paper PMC9192718.
Results are given in words; binding and its absence hold for the method and conditions named. Binding can be weak; no strength is given. Where a sequence is shown, tags or fusion partners need not be part of it.

T1: Schizosaccharomyces pombe Vps25 (ESCRT-II), yeast two-hybrid fusion (Schizosaccharomyces pombe) (UniProt O74967)
T1 sequence: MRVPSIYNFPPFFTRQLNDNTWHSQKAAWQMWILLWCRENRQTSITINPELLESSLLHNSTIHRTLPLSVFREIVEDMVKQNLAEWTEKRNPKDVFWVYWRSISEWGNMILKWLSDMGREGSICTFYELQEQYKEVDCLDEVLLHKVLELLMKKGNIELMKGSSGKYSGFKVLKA

B1: Schizosaccharomyces pombe Vps20 (ESCRT-III), yeast two-hybrid fusion (protein, UniProt O94318 1-226)
chain: MGVNSSKINDKDRSILSIKEQRDKLLRYSKRLEKIEQLEIDIARKCLRDSDKRGALRALKAKKLYSGLITQTYGQLGNIEQLLSTIEFTLIQKDVMFGLQEGTNLIRQLQADMPLERVGRICNDRDEAMSYVDEVNDMLQGRMSRDQEDEIQEELDSLIREQEDEKVKDLEKPGFTPSTGVDVLPSVPLKNAIPSLDESFPKAASVSNTSSAVVIDEELRKDPVLG

Columns and labels:
Experiment in all cases: two-hybrid; systematic, reciprocal; LexA DNA-binding domain (pMM5) and Gal4 activation domain (pMM6) fusions in mated budding yeast SGY37 and YPH500; X-Gal overlay, scanned after 16 hr
[1] = target: T1, Schizosaccharomyces pombe Vps25 (ESCRT-II), yeast two-hybrid fusion (Schizosaccharomyces pombe)
[2] = target: Schizosaccharomyces pombe Vps22 (ESCRT-II), yeast two-hybrid fusion (Schizosaccharomyces pombe)
[3] = target: Schizosaccharomyces pombe Vps32 (ESCRT-III), yeast two-hybrid fusion (Schizosaccharomyces pombe)

Row | Molecule | binding [1] | binding [2] | binding [3]
1 | Schizosaccharomyces pombe Vps22 (ESCRT-II), yeast two-hybrid fusion | binds |  | 
2 | B1 |  | binds | binds
